Source: the supplement of paper PMC3334620
Over roughly 33,000 sequences, “E-score (-0.5 to 0.5)” has its median near -0.016; the highest 2% begin near 0.3. The list shows a part of the results.

What follows are sequences tested against T1, Yer184c (UniProt P39961) (assay: PBM E-score (8-mer binding enrichment) (E-score (-0.5 to 0.5)); higher = stronger / more preferred TF binding). Conditions: protein concentration: 100 nM; construct: GST-full length.
T1 sequence: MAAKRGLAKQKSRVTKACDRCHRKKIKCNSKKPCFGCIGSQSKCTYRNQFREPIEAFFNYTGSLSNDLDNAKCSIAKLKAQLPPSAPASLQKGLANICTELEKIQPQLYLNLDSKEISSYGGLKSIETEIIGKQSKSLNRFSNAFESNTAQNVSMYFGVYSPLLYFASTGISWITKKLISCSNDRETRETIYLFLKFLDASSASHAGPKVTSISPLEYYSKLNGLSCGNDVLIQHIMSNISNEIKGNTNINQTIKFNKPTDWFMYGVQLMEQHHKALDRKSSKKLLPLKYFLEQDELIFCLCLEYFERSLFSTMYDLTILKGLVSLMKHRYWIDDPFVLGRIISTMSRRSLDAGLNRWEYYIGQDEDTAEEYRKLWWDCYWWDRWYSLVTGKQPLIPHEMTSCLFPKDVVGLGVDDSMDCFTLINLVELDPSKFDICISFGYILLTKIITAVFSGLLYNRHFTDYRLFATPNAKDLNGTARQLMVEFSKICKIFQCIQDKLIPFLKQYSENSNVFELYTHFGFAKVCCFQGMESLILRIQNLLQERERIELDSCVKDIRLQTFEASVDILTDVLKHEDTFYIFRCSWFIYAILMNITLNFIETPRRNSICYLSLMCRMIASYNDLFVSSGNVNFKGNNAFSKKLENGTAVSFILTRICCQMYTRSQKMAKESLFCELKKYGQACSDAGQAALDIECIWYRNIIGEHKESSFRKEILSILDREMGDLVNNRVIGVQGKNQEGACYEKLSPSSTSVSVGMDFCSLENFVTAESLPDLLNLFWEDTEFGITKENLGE
Outline: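 Bound GST-tagged yeast transcription factors, applied at about 100-200 nM to double-stranded universal all-10-mer Agilent arrays, were detected with fluorescent anti-GST. Scans were normalised with masliner. A modified Wilcoxon-Mann-Whitney statistic, the E-score, was assigned to each ungapped eight-base word pooled with its reverse complement by the Universal PBM Analysis Suite.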

| Sequence | PBM E-score |
| --- | --- |
| ATCTTCGC | -0.0164 |
| ATACAGTC | -0.139 |
| ATGGAATG | -0.0127 |
| TCGTAGAA | -0.00598 |
| ATAGGTGC | -0.207 |
| CCCCGGCA | 0.0621 |
| CATTACAG | -0.117 |
| AGGCATAG | -0.0292 |
| CGAGATAA | 0.221 |
| CGCCATCA | -0.255 |
| GGGGTGTA | -0.313 |
| CGGGTTAA | 0.275 |
| AGCACCTA | -0.151 |
| CATGACGG | 0.00557 |
| CTCTCCCC | -0.334 |
| CGTCACGA | -0.0573 |
| GCTTTTCA | 0.0483 |
| CGGCTACA | 0.159 |
| AGGCACTC | -0.109 |
| AATAGATA | 0.173 |
| CTCGCGAG | 0.0566 |
| GTCACGTA | -0.144 |
| AATGTTGT | -2e-05 |
| CGGTCCCA | -0.0326 |
| CCGGCGAA | 0.35 |

| Sequence | PBM E-score |
| --- | --- |
| AATCCGGG | 0.269 |
| AGTAAGTA | 0.119 |
| ACCCTGTC | -0.258 |
| CACGCCGA | 0.153 |
| CCGACACG | 0.00343 |
| ATGGGTGA | -0.106 |
| CTCTCTAC | -0.0939 |
| CGGTCGCA | -0.0193 |
| GGGCACCA | -0.168 |
| GTTCCACA | -0.0536 |
| ACTATTAT | 0.152 |
| GGAGCCAC | -0.216 |
| ACTGGTTC | 0.162 |
| CCGCTGCG | -0.122 |
| ATGGTCTC | 0.052 |
| ATCGAGCA | 0.0416 |
| CGCAGGCA | -0.0787 |
| CCAACCAG | -0.241 |
| ATACGTAA | 0.15 |
| CAAATGGG | -0.243 |
| AGCTCGAT | 0.136 |
| GATCTGGA | -0.0474 |
| GAAGCTAA | -0.0943 |
| GCTACTCC | 0.083 |
| CTGTAAAA | 0.0841 |

| Sequence | PBM E-score |
| --- | --- |
| ACAGTATA | -0.0135 |
| AGTTCTCA | 0.0932 |
| TATACCAA | 0.0942 |
| CGGCGAAG | 0.205 |
| GTATTGAA | 0.0799 |
| AAAAAATA | 0.112 |
| TCTGGCAA | -0.00181 |
| GCTATCAA | 0.214 |
| AGGTTATG | -0.122 |
| CGCGCGTA | -0.0439 |
| TGTCTCAA | -0.0699 |
| GTCTACCA | -0.138 |
| AACAAATC | 0.121 |
| GGCATGAA | 0.206 |
| AATGTAAT | 0.282 |
| AGAACGCC | -0.0143 |
| CCGCGTCC | 0.223 |
| GATTAACC | -0.0522 |
| AATGCAAA | 0.125 |
| GGCATCTA | 0.0791 |
| GGACGTCA | -0.244 |
| ATTCTTAG | -0.122 |
| ACAAACTA | 0.131 |
| ACACCCTG | -0.248 |
| AATTCTCG | 0.134 |

An excerpt of these results, bar-delimited.
Sequence | PBM E-score
AGTTCTCA | 0.0932
GATTAACC | -0.0522
ACAAACTA | 0.131

Four consecutive records out of the list so far, quoted:

| Sequence | PBM E-score |
| --- | --- |
| GGCATGAA | 0.206 |
| AATGTAAT | 0.282 |
| AGAACGCC | -0.0143 |
| CCGCGTCC | 0.223 |

(list continues)

| Sequence | PBM E-score |
| --- | --- |
| CCCCCGTC | -0.351 |
| AGGGGTAG | -0.242 |
| AGACAGTA | 0.0761 |
| GATTTTCA | 0.207 |
| GAAAGCTA | 0.00964 |
| AACGTCTG | 0.00407 |
| AATATCAT | 0.142 |
| TCCACAAA | 0.197 |
| ACTCAACT | 0.15 |
| AATCCTAA | -0.0613 |
| AAGCCACT | -0.192 |
| ACCCCTCC | -0.209 |
| ACGAGACT | -0.121 |
| CTAGCAAA | 0.114 |
| AAGGAGAT | -0.0447 |
| ACCCTACA | -0.0427 |
| CCGCAGGC | 0.104 |
| CATTCGAC | 0.0575 |
| AAGCAGAA | 0.0833 |
| AATTGGGC | -0.00147 |
| CCTAGTGC | -0.0697 |
| CTACGGCC | 8e-05 |
| CGTTCCCC | -0.21 |
| TGAATGCA | -0.0178 |
| CCGGAATC | 0.336 |

| Sequence | PBM E-score |
| --- | --- |
| CGGGGCAC | -0.0898 |
| ACGATTTA | 0.0905 |
| GGAATCCA | 0.0185 |
| GGTAACGA | -0.013 |
| ACGTATGA | 0.19 |
| AGGAAGGG | -0.228 |
| CTCTAGCA | -0.152 |
| AATCTTGG | -0.111 |
| CGGCCGTA | 0.311 |
| ACTGTAGC | -0.0197 |
| AAAAAAAA | 0.231 |
| CCGCCAGG | -0.288 |
| CAGTGAGC | -0.276 |
| TCCTCCCA | -0.0546 |
| CACCCACA | -0.0828 |
| CCACGGGA | -0.00213 |
| GATTATCC | 0.137 |
| AGGTACAC | -0.147 |
| TAGACCCA | -0.0937 |
| CGCCCCCA | -0.315 |
| GCTACTAA | 0.0486 |
| ATAGCATA | 0.00878 |
| GGAGCCAA | -0.0882 |
| GCCGGGGA | 0.0977 |
| AACGCGGA | 0.178 |

| Sequence | PBM E-score |
| --- | --- |
| ATTAGGGG | -0.159 |
| AGGGGTTG | -0.26 |
| ATGGTACA | -0.114 |
| GAAGAAGC | 0.0592 |
| TGCGACAA | 0.00257 |
| ACCCGAAC | 0.243 |
| GGAACCGA | 0.248 |
| CATTGACA | -0.124 |
| AGTATATG | 0.0296 |
| CCCTCGTA | -0.117 |
| CGCCCGGC | 0.213 |
| AGGGCGTG | -0.232 |
| ACACCCGA | 0.109 |
| GGAGTACC | -0.219 |
| ATGAAATC | 0.16 |
| AAGATTCC | 0.194 |
| GCTGAACC | 0.0738 |
| CCCCCTAC | -0.346 |
| CCAATGAA | -0.0742 |
| CGTGTATC | 0.0553 |
| ACCACTGA | -0.0552 |
| ATATAGTC | 0.113 |
| CCCGGCGA | 0.236 |
| CCCCTAAC | -0.157 |
| CATCACAG | -0.209 |

| Sequence | PBM E-score |
| --- | --- |
| GCAAACGA | 0.203 |
| ACGCGAGA | -0.00904 |
| CTATCTTC | -0.0511 |
| GAGCAAAC | -0.0268 |
| GAAGCGGA | 0.0741 |
| AGGACTAT | -0.238 |
| CCAACGCG | 0.026 |
| AACGCCAT | -0.134 |
| ATGACCAT | -0.0315 |
| CACGAAGG | 0.0461 |
| CTGCATGA | -0.301 |
| AACGACGT | -0.0552 |
| ATGACGGG | 0.0808 |
| ATTACATG | 0.113 |
| CATGGAAG | 0.0843 |
| AAGCAATC | -0.0597 |
| AAAGTAGC | 0.108 |
| ACTCTGTA | -0.0169 |
| GTTCGAAA | 0.207 |
| AAGTTTTA | 0.175 |
| ATAGGTTC | -0.0318 |
| AACCCCCT | -0.381 |
| CGTTATCA | 0.0634 |
| TACAGTAA | -0.0442 |
| CTTATGAA | 0.00995 |

| Sequence | PBM E-score |
| --- | --- |
| TAGTGTCA | 0.105 |
| AGAATCCT | -0.138 |
| AGCTTCAA | 0.0442 |
| TCCCGGAA | 0.391 |
| AAGACAGC | -0.0302 |
| ATTCACCC | -0.155 |
| ATTTTAAC | 0.028 |
| CGAGGCAC | -0.0493 |
| CCGTAATA | 0.155 |
| CTCGTTTC | -0.00256 |
| CGAGAGAA | 0.0551 |
| GGAATTAC | 0.19 |
| CGCTCTCA | -0.171 |
| AATAGGAT | 0.264 |
| TACGTTGA | -0.117 |
| GAGGTTGC | -0.145 |
| AGAACTCC | -0.138 |
| GTGGGGTA | -0.0198 |
| ACTCGTTG | -0.134 |
| TGTTCGAA | 0.16 |
| AACATGAA | -0.00023 |
| GAAATCGA | 0.0893 |
| CCCTTCGA | -0.2 |
| CACAGACA | 0.163 |
| CCGATAAA | 0.239 |

An excerpt of these results, tab-delimited:
Sequence	PBM E-score
CGAGAGAA	0.0551
GGAATTAC	0.19
CGCTCTCA	-0.171

Remaining list, next part:

| Sequence | PBM E-score |
| --- | --- |
| CTCCTAAG | -0.104 |
| GGGTGATA | -0.22 |
| AGGGGCCG | -0.268 |
| ATGCATTG | -0.0672 |
| CGCGATAA | 0.0428 |
| CAGATGGA | 0.025 |
| ACTACACA | 0.0341 |
| AACAGGTC | -0.138 |
| TGACAGAA | 0.0155 |
| ATGAAAAC | 0.231 |
| GATATACA | 0.128 |
| ACCTTGTC | -0.162 |
| AGAGTTCC | -0.059 |
| AGAGTCCG | 0.107 |
| ACTCCGTG | 0.1 |
| AAACTGGG | -0.182 |
| ATTACGCA | 0.00982 |
| CTATGCCC | -0.16 |
| AAACCTCT | -0.00834 |
